Primary screen of a compound library

Protein sequences, listed by entry. Tags and fused reporters are not part of them. Residues count along the entry.
UniProt Q8IDJ8, 1-583: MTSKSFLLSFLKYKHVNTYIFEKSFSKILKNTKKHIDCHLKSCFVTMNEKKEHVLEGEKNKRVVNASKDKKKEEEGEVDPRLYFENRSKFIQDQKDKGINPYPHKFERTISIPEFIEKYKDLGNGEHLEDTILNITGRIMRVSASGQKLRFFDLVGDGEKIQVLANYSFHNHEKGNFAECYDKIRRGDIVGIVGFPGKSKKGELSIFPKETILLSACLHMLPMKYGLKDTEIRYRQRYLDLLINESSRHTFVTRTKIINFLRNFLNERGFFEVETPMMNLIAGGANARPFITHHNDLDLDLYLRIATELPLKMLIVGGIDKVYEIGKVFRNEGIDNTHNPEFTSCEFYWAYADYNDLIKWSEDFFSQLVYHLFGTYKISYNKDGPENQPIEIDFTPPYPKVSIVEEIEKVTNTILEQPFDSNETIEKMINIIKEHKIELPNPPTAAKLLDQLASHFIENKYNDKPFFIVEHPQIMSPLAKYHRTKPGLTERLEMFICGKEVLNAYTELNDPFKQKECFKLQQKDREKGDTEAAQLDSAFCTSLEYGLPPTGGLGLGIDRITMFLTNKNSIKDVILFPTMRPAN
UniProt P9WFT3, whole entry: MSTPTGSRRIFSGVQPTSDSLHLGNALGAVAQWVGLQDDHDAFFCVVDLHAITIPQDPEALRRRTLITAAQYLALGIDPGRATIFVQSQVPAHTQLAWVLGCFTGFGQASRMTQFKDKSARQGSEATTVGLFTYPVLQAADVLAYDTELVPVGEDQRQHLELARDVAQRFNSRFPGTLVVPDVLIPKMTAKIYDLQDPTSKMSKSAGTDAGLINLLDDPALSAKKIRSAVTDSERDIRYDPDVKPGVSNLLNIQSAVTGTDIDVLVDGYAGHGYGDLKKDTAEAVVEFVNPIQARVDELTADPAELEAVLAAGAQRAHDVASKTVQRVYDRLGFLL
UniProt P9WPC5, whole entry: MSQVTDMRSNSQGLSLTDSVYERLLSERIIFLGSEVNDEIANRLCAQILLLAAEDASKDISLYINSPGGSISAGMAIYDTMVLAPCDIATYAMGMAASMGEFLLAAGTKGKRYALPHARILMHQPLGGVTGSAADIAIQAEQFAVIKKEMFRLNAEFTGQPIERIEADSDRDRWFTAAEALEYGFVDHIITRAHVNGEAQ
UniProt P9WPC3, whole entry partner: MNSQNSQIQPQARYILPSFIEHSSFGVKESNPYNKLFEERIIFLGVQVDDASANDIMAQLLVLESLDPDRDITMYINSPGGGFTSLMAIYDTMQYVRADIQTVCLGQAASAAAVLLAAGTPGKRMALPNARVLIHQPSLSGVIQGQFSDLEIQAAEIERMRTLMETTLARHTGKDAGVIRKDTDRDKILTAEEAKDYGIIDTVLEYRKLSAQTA
UniProt Q4DA54, 1-478: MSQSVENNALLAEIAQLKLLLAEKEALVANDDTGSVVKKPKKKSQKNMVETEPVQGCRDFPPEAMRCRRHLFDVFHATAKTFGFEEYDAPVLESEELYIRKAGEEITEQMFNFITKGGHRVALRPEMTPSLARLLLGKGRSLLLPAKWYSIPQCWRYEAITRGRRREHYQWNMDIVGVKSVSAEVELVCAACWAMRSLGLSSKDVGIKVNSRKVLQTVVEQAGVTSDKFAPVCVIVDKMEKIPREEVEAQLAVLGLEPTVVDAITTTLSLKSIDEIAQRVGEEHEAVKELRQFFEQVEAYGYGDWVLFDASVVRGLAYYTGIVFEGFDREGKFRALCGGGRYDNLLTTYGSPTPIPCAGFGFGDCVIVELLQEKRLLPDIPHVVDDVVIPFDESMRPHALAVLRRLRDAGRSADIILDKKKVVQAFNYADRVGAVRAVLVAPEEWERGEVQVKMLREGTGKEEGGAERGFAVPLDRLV

Measurements from “University of Dundee, Small-Polar-MMV Screening Library” (2021), ChEMBL document CHEMBL3988442.

PfKRS1: 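Enzyme assay of the cytosolic lysyl-tRNA synthetase in 384-well plates, read by luminescence. Target: Lysine-tRNA ligase, Plasmodium falciparum 3D7 (UniProt Q8IDJ8). Concentration: 30 µM. Direction is inferred from only a few compounds that gave an IC50; most scored high, so higher reads as stronger inhibition. About 69,000 compounds were tested under these conditions; 0.071% (about 49) showed 50% or more at least once.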
MtTrpRS: 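Tryptophan-tRNA ligase, Mycobacterium tuberculosis (UniProt P9WFT3). Enzyme assay of tryptophanyl-tRNA synthetase; the read-out is not stated. Compounds at 10 µM. Higher most likely means stronger inhibition; the record gives no direction and few retests gave an IC50. About 65,000 compounds were tested under these conditions; 0.098% (about 64) showed 50% or more at least once.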
ClpP1P2: 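ClpP1P2, Mycobacterium tuberculosis (UniProt P9WPC5 and UniProt P9WPC3). Protease assay of ClpP1P2, read by the AMC dye that it sets free. Concentration: 50 µM. Direction is inferred from only a few compounds that gave an IC50; most scored high, so higher reads as stronger inhibition. Most other retested compounds had strongly negative values. About 69,000 compounds were tested under these conditions; 0.015% (about 10) showed 50% or more at least once.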
TcHisRS: 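Histidine-tRNA ligase, Trypanosoma cruzi CL Brener (UniProt Q4DA54). Enzyme assay of histidyl-tRNA synthetase; the read-out is not stated. Tested at 30 µM. The record gives no direction; compounds that gave an IC50 in retests scored well above the rest, so higher reads as stronger inhibition. Size under these conditions: about 69,000 compounds, about 31 of them at 50% or above in at least one test.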

Each number is a percent effect as filed.
How 0% and 100% were set is not recorded. Most values in the screen are low, and negative values occur.
The compounds are a random part of those screened.

{"compound": "O=C(O)Cc1cn2cc(C(F)(F)F)ccc2n1", "PfKRS1": 1.16, "MtTrpRS": -0.143, "ClpP1P2": -13.7, "TcHisRS": 0}
{"compound": "CCc1nccn1C1CCCN(C(=O)c2cnc3onc(C)c3c2)C1", "stereo": "stereo unspecified", "PfKRS1": 10.17, "MtTrpRS": -0.4068, "ClpP1P2": -12.76, "TcHisRS": -3.361}
{"compound": "C=C(C)CSc1nnc(CCNC(=O)OC(C)(C)C)o1", "PfKRS1": -1.358, "MtTrpRS": -2.171, "ClpP1P2": 8.499, "TcHisRS": 4.094}
{"compound": "Cc1nnc2n1CCN(C(=O)c1cnc(C3CC3)s1)C2", "PfKRS1": 4.321, "MtTrpRS": -0.551, "ClpP1P2": 4.859, "TcHisRS": 4.545}
{"compound": "CC(O)(CNC(=O)NCc1cccc(-n2cncn2)c1)c1ccco1", "stereo": "stereo unspecified", "PfKRS1": -3.348, "MtTrpRS": 14.16, "ClpP1P2": 3.966, "TcHisRS": 1.163}
{"compound": "Cc1nnc(CN(Cc2ccccc2Br)C2CC2)o1", "PfKRS1": 4.481, "MtTrpRS": -2.999, "ClpP1P2": -4.42, "TcHisRS": 2.02}
{"compound": "CNC(=O)NC(=O)CN(Cc1ccc(C#N)cc1)Cc1cccc(F)c1", "PfKRS1": 3.623, "MtTrpRS": -4.806, "ClpP1P2": -1.26, "TcHisRS": 0.5525}
{"compound": "Cc1noc(CN2CCN(Cc3cccs3)CC2)n1", "PfKRS1": 6.898, "MtTrpRS": 0.5596, "ClpP1P2": -2.211, "TcHisRS": 2.29}
{"compound": "Cc1nn(C)cc1CN(C)C(=O)c1cccnc1", "PfKRS1": 1.909, "MtTrpRS": 3.297, "ClpP1P2": 3.985, "TcHisRS": 2.632}
{"compound": "CCS(=O)(=O)NC(CCSC)C(=O)Nc1cccc(C)c1C", "stereo": "stereo unspecified", "PfKRS1": 3.232, "MtTrpRS": 4.627, "ClpP1P2": 1.712, "TcHisRS": 5.521}
{"compound": "Cc1cccc(CN2C(=O)C[C@H]3[C@@H]2CCN3CC2CC2)n1", "PfKRS1": 4.743, "MtTrpRS": 0.5344, "ClpP1P2": 6.263, "TcHisRS": 3.759}
{"compound": "Cc1cnn(CCCNC(=O)NC(C)C(=O)Nc2ccccc2)c1", "stereo": "stereo unspecified", "PfKRS1": -1.453, "MtTrpRS": -0.306, "ClpP1P2": -7.299, "TcHisRS": 5.473}
{"compound": "Cc1occc1C(=O)N1C[C@H]2CCCC(OCc3cccnc3)[C@H]2C1", "stereo": "stereo partly specified", "PfKRS1": 0.8532, "MtTrpRS": -0.4882, "ClpP1P2": -9.003, "TcHisRS": 8.824}
{"compound": "COCC(=O)N1C[C@H]2CNC[C@@]2(C(=O)NCc2nc(C)cc(C)n2)C1", "PfKRS1": -2.222, "MtTrpRS": -1.625, "ClpP1P2": -4.667, "TcHisRS": 5.319}
{"compound": "CN1CCN(Cc2ccccc2CNC(=O)c2cc(Br)ccc2F)CC1", "PfKRS1": -1.256, "MtTrpRS": 1.675, "ClpP1P2": 2.519, "TcHisRS": 7.882}
{"compound": "O=c1[nH]c(-c2ccccn2)nc2c1CCN(S(=O)(=O)N1CCCC1)C2", "PfKRS1": 13.04, "MtTrpRS": -1.25, "ClpP1P2": 10.74, "TcHisRS": 1.554}
{"compound": "CN(Cc1ccccc1)C(=O)CCNc1ncccc1C#N", "PfKRS1": -0.12, "MtTrpRS": -0.1899, "ClpP1P2": -6.321, "TcHisRS": 5}
{"compound": "O=S(=O)(CCNCc1cccc2c1OCCO2)N1CCOCC1", "PfKRS1": -6.846, "MtTrpRS": -1.935, "ClpP1P2": 6.511, "TcHisRS": 3.333}
{"compound": "O=C(Cc1ccsc1)N1CCn2cc(Cn3cncn3)nc2C1", "PfKRS1": 1.254, "MtTrpRS": -0.2212, "ClpP1P2": -18.36, "TcHisRS": 8.743}

Some entries from above, unchanged:

For Cc1cccc(CN2C(=O)C[C@H]3[C@@H]2CCN3CC2CC2)n1 the result was PfKRS1: 4.743%; MtTrpRS: 0.5344%; ClpP1P2: 6.263%; TcHisRS: 3.759%.
For Cc1nnc2n1CCN(C(=O)c1cnc(C3CC3)s1)C2 the result was PfKRS1: 4.321%; MtTrpRS: -0.551%; ClpP1P2: 4.859%; TcHisRS: 4.545%.